# From the supplement of paper PMC7666118
# Chains of the proteins cited; added tags and fusions are not shown. Lines headed by an entry give the natural chain unless they say otherwise; changes in a name come on top.
# UniProt Q6DD88: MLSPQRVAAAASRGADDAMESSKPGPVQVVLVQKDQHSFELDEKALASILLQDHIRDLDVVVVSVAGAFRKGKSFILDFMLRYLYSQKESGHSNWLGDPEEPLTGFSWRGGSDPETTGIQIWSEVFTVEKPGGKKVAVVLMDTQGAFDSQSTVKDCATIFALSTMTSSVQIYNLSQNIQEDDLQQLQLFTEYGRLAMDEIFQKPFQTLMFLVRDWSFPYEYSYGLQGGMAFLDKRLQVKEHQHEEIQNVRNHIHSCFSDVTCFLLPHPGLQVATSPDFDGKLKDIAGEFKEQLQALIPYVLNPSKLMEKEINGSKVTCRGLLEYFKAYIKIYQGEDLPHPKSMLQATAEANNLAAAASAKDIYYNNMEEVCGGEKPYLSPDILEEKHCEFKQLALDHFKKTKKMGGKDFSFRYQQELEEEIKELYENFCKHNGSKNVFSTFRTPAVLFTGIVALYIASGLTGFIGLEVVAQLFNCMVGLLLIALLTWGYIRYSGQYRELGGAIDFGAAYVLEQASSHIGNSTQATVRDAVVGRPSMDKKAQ
# UniProt Q9Y2T2: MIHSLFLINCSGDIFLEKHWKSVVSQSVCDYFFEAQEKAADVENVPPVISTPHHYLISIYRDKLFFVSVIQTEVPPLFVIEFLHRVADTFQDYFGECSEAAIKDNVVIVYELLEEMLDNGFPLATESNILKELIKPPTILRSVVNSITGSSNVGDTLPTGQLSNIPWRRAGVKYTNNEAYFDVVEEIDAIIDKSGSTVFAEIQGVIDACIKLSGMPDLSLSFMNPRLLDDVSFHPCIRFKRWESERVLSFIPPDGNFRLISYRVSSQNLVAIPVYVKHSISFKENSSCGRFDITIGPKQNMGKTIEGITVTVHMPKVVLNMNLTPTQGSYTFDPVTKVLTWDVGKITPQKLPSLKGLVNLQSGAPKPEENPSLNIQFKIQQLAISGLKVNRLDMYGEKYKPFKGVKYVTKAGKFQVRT
# UniProt P12429: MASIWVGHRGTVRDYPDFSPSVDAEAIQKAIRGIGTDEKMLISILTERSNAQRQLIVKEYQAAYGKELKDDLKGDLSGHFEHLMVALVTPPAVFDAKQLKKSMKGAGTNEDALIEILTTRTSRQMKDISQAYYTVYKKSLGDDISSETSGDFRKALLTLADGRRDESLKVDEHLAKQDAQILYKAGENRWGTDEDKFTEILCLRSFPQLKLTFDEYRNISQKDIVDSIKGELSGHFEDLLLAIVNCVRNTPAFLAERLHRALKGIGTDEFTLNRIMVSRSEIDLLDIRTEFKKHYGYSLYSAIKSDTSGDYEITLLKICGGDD
# UniProt Q9ULH1: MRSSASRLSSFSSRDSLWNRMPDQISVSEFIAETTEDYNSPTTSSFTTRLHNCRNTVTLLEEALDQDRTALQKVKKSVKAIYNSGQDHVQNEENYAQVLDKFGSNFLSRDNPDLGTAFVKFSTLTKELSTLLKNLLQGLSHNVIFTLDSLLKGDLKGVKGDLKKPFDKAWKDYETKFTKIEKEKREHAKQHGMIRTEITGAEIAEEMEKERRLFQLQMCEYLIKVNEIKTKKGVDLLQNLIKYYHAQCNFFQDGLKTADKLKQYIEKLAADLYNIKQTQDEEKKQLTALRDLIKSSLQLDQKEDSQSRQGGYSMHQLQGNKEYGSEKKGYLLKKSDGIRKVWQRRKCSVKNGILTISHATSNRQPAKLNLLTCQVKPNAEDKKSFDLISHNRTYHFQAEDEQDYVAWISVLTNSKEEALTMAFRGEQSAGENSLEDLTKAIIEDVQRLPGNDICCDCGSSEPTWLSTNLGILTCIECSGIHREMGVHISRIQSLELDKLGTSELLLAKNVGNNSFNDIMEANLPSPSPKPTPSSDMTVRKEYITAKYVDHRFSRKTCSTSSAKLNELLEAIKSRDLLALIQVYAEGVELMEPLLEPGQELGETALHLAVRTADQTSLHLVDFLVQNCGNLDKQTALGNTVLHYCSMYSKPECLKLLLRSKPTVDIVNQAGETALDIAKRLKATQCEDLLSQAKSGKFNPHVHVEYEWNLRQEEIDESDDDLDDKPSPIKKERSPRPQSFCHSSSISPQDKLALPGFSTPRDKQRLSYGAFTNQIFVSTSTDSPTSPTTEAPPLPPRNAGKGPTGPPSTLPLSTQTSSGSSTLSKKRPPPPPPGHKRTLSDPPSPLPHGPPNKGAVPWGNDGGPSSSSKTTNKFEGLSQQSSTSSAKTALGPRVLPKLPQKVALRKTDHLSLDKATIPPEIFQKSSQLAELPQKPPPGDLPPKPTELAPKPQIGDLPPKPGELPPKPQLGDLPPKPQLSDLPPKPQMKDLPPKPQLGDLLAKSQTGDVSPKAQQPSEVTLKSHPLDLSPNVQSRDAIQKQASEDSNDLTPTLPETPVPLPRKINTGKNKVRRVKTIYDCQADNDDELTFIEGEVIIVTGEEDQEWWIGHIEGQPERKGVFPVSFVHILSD
# UniProt P31939: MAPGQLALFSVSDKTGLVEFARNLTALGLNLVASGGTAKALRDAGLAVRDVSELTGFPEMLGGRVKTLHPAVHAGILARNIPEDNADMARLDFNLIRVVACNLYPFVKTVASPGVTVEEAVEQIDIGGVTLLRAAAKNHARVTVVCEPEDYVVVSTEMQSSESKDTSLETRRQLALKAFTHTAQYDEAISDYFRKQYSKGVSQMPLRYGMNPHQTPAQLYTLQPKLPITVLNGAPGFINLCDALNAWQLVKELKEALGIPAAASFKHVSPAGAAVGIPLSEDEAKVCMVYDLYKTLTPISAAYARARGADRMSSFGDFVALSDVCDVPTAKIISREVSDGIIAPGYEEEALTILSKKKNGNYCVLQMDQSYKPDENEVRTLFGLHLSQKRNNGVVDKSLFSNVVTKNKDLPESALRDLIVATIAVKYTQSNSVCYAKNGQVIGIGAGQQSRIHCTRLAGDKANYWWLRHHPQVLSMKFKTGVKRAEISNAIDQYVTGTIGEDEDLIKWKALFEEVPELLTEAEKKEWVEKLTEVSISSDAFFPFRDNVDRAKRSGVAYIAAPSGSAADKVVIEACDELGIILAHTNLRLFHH
# UniProt Q676U5: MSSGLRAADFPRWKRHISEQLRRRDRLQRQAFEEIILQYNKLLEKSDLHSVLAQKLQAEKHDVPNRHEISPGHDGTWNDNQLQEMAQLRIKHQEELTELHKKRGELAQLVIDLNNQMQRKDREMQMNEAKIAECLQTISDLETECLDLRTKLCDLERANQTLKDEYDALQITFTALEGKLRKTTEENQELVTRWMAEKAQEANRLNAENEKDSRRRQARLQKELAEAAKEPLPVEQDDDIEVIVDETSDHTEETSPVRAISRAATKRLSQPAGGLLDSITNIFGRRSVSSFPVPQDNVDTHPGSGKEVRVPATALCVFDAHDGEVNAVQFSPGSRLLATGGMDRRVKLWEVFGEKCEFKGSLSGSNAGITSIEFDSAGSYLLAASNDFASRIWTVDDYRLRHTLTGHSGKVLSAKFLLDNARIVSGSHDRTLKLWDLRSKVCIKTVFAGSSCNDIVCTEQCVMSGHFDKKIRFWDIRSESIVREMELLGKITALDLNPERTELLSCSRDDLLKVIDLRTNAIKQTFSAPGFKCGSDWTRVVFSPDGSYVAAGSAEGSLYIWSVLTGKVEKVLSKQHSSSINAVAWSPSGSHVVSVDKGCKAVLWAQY
# UniProt P15144: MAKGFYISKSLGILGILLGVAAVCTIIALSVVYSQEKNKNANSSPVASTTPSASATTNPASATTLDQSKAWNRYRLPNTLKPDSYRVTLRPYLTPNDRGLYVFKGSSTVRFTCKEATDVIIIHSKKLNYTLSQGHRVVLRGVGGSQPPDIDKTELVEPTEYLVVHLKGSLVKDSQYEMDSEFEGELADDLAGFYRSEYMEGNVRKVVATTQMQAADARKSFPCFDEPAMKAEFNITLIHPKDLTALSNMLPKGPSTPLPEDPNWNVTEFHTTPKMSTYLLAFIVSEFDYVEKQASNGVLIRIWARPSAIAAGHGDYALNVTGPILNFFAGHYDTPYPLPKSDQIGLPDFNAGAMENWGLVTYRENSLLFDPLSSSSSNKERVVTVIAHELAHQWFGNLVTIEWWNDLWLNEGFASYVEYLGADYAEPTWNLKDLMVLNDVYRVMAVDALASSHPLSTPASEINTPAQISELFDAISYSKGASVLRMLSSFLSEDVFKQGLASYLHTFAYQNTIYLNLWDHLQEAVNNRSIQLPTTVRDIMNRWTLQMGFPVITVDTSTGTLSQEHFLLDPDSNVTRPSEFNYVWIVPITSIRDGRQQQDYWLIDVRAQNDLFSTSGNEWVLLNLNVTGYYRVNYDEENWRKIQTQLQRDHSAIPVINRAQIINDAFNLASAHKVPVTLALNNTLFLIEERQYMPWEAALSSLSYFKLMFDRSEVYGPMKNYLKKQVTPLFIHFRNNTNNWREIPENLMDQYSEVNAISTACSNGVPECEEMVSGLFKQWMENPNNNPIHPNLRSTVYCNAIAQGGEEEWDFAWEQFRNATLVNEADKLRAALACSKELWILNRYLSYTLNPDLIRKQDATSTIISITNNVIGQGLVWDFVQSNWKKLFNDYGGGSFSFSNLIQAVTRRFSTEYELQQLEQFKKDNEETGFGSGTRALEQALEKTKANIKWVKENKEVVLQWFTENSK
# UniProt Q9C0C7: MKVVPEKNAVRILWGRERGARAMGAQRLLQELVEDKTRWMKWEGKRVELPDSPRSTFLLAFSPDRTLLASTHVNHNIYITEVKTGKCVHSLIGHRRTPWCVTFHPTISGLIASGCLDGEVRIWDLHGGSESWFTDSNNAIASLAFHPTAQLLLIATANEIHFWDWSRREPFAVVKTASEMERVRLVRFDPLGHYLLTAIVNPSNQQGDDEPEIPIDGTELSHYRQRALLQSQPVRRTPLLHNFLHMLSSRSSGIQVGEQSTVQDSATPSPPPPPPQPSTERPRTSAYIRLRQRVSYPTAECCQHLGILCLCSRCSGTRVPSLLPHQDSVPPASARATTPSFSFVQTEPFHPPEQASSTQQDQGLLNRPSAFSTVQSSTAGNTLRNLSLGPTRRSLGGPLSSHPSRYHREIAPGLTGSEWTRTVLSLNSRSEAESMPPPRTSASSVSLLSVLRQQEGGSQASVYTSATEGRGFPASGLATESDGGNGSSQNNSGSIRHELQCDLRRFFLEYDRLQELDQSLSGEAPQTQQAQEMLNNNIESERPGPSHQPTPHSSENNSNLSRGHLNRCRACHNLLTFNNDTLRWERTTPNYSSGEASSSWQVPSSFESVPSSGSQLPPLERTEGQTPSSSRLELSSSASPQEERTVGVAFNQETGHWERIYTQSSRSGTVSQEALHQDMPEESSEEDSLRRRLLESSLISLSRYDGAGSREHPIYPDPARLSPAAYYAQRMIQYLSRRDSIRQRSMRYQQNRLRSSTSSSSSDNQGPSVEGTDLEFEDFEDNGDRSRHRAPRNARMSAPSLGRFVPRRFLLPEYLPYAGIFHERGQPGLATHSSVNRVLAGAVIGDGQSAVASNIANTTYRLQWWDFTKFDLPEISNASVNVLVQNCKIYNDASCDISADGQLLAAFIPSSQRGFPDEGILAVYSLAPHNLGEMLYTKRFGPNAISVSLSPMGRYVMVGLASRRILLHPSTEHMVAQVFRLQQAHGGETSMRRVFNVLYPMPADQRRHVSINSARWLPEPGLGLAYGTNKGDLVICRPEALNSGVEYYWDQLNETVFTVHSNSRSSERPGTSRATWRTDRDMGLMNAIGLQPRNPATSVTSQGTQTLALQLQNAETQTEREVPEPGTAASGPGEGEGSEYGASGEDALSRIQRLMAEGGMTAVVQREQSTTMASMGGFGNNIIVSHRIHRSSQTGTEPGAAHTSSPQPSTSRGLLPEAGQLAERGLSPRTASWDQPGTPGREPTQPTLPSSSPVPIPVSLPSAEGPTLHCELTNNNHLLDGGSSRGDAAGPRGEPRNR
# UniProt P28039: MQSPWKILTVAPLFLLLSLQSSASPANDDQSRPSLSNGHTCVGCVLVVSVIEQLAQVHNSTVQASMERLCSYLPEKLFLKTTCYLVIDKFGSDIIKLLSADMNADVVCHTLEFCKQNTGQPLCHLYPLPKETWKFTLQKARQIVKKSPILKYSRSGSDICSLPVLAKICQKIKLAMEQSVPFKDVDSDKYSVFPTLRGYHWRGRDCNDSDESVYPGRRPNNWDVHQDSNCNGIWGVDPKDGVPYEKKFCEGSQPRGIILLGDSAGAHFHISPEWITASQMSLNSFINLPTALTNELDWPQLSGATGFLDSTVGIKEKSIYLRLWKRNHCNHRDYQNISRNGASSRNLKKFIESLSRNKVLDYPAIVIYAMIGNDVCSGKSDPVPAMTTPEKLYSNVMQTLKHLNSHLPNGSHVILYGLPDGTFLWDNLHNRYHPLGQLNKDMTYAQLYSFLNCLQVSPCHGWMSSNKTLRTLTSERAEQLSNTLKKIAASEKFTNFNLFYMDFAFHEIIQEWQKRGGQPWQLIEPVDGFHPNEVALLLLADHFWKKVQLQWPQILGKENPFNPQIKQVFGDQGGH
# The list shows a part of the results.
# Compound: COc1ccc(Cn2ccc3cc(C)c(C(=O)NO)cc32)cc1
# Assay: dose-dependent thermal stabilisation call (2D-TPP, DLPTP, 10% FDR) (binary (1 = stabilised)); higher = stabilised by the compound
# Settings: system: HL-60 intact cells; concentration range 0.04-10 µM
# Method: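 2D thermal proteome profiling in intact HL-60 cells treated with BRD-3811 (0, 0.04, 0.29, 2, 10 uM) for 90 min at 37 C, then heated 3 min at one of 12 temperatures (42-63.9 C). Soluble protein was quantified by TMT10 MS. The value is the DLPTP call of the paper: dose-dependent thermal stabilisation over all temperatures at 10% FDR (F-test of a dose-response against a flat model); one experiment, one call per tested protein.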
row,Target,dose-dependent thermal stabilisation call
1,ANGEL2 (UniProt Q5VTE6),inactive: 0
2,ALDOA (UniProt P04075),inactive: 0
3,ATL3 (UniProt Q6DD88),inactive: 0
4,AP3M1 (UniProt Q9Y2T2),inactive: 0
5,ARIH2 (UniProt O95376),inactive: 0
6,AGAP2 (UniProt Q99490),inactive: 0
7,ANAPC1 (UniProt Q9H1A4),inactive: 0
8,ARID3A (UniProt Q99856),inactive: 0
9,ANXA3 (UniProt P12429),inactive: 0
10,ASAP1 (UniProt Q9ULH1),inactive: 0
11,ATIC (UniProt P31939),active: 1
12,ARL8B (UniProt Q9NVJ2),inactive: 0
13,ARFGEF2 (UniProt Q9Y6D5),inactive: 0
14,AKAP8 (UniProt O43823),inactive: 0
15,ANTXR1 (UniProt Q9H6X2),inactive: 0
16,AGA (UniProt P20933),inactive: 0
17,ARL13B (UniProt Q3SXY8),inactive: 0
18,APH1A (UniProt Q96BI3),inactive: 0

row,Target,dose-dependent thermal stabilisation call
1,ARHGEF1 (UniProt Q92888),inactive: 0
2,AKAP11 (UniProt Q9UKA4),inactive: 0
3,AMOTL1 (UniProt Q8IY63),inactive: 0
4,AP2A1 (UniProt O95782),inactive: 0
5,ARHGAP18 (UniProt Q8N392),inactive: 0
6,ALG2 (UniProt Q9H553),inactive: 0
7,ATG16L1 (UniProt Q676U5),inactive: 0
8,AFG3L2 (UniProt Q9Y4W6),inactive: 0
9,ANPEP (UniProt P15144),inactive: 0
10,ALKBH8 (UniProt Q96BT7),inactive: 0
11,ALG1 (UniProt Q9BT22),inactive: 0
12,AMBRA1 (UniProt Q9C0C7),inactive: 0
13,ALDH1L2 (UniProt Q3SY69),inactive: 0
14,ASCC2 (UniProt Q9H1I8),inactive: 0
15,AOAH (UniProt P28039),inactive: 0
16,APIP (UniProt Q96GX9),inactive: 0
17,AGTPBP1 (UniProt Q9UPW5),inactive: 0
18,ANXA11 (UniProt P50995),inactive: 0

# Quoted at random: 2 records from the list.
row,Target,dose-dependent thermal stabilisation call
4,AP2A1 (UniProt O95782),inactive: 0
18,ANXA11 (UniProt P50995),inactive: 0
